PubChem BioAssay AID1224826, NIAID – 2016
The deposit covers about 17,000 reagents; this is a random part of them. About 1,110 of all reagents (6.6%) count as active. 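Active means lowered or raised reporter signal; replicate intensities are raw and not normalised per plate.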 The numbers tell different reagents against one gene apart.

Aim: 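Knock-downs that raise or lower Tnf reporter signal after endotoxin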 (primary screen)
Cells: RAW264.7 G9 macrophages from mouse bearing reporters for p65 (GFP) and the Tnf promoter (mCherry)
Knock-down reagent: siRNA pool against mouse genes, 100 nM
Timing: 16 h of LPS stimulation, after 2 days of siRNA transfection
Challenge: bacterial lipopolysaccharide (Salmonella minnesota R595), 10 ng/ml
Detection: 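Nuclear mCherry signal of the Tnf promoter reporter measured by imaging after background removal, scaled to each plate median and turned into robust z-scores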
Reading the numbers: Tnf reporter robust z-score: higher = stronger Tnf promoter reporter signal after LPS; Tnf reporter intensity: higher = stronger Tnf promoter reporter signal
Rule for the call: 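Called active when robust z-score is at most -1.3, matching the median of the Tlr4 knock-down control, or over 3; control wells and wells with under 50 cells never active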
Calls: active = Tnf reporter clearly lowered or raised; inactive = no clear change in Tnf reporter

Target gene | reagent no. | Tnf reporter robust z-score | fewer than 50 cells in well | Tnf reporter intensity, replicate 1 | Tnf reporter intensity, replicate 2 | Outcome
Or4g17 (olfactory receptor family 4 subfamily G member 17) | 1 | 3.7 | enough cells in well | 374 | 294 | active
9330155M09Rik (RIKEN cDNA 9330155M09 gene) | 1 | -0.1 | enough cells in well | 180 | 176 | inactive
Repin1 (replication initiator 1) | 1 | -0.45 | enough cells in well | 115 | 102 | inactive
Ino80b (INO80 complex subunit B) | 1 | -0.43 | enough cells in well | 177 | 162 | inactive
Fate1 (fetal and adult testis expressed 1) | 1 | 1 | enough cells in well | 254 | 238 | inactive
Rsbn1 (rosbin, round spermatid basic protein 1) | 1 | 3.32 | enough cells in well | 232 | 199 | active
Ext1 (exostosin glycosyltransferase 1) | 1 | 0.81 | enough cells in well | 308 | 276 | inactive
Stard13 (StAR related lipid transfer domain containing 13) | 1 | 1 | enough cells in well | 187 | 84.3 | inactive
Necab2 (N-terminal EF-hand calcium binding protein 2) | 1 | -1.44 | enough cells in well | 101 | 70.8 | active
Pdxk (pyridoxal (pyridoxine, vitamin B6) kinase) | 1 | 2.46 | enough cells in well | 330 | 322 | inactive
Rph3a (rabphilin 3A) | 1 | 0.52 | enough cells in well | 152 | 148 | inactive
Ssh1 (slingshot protein phosphatase 1) | 1 | – | fewer than 50 cells per well; well left out of calls | 119 | 57.3 | inactive
Tnpo2 (transportin 2 (importin 3, karyopherin beta 2b)) | 1 | – | fewer than 50 cells per well; well left out of calls | 60.8 | 49.4 | inactive
Dennd5a (DENN domain containing 5A) | 1 | 0.45 | enough cells in well | 138 | 161 | inactive
Pald1 (phosphatase domain containing, paladin 1) | 1 | 0.39 | enough cells in well | 262 | 214 | inactive
Mix23 (mitochondrial matrix import factor 23) | 1 | -0.53 | enough cells in well | 142 | 179 | inactive
Irf1 (interferon regulatory factor 1) | 1 | 0.56 | enough cells in well | 257 | 198 | inactive
Stn1 (STN1, CST complex subunit) | 1 | -0.78 | enough cells in well | 202 | 54.3 | inactive
Nlrx1 (NLR family member X1) | 1 | -0.19 | enough cells in well | 203 | 183 | inactive
Basp1 (brain abundant, membrane attached signal protein 1) | 1 | 0.12 | enough cells in well | 150 | 169 | inactive
Exd2 (exonuclease 3'-5' domain containing 2) | 1 | 0.37 | enough cells in well | 164 | 227 | inactive
Josd1 (Josephin domain containing 1) | 1 | -0.14 | enough cells in well | 269 | 39.2 | inactive
Aqp4 (aquaporin 4) | 1 | -0.3 | enough cells in well | 125 | 182 | inactive
Tal1 (T cell acute lymphocytic leukemia 1) | 1 | -0.28 | enough cells in well | 213 | 120 | inactive
Erc2 (ELKS/RAB6-interacting/CAST family member 2) | 1 | 0.9 | enough cells in well | 317 | 280 | inactive
Or52r1c (olfactory receptor family 52 subfamily R member 1C) | 1 | 1.26 | enough cells in well | 139 | 170 | inactive
Kcnh7 | 1 | 0.48 | enough cells in well | 243 | 201 | inactive
Prxl2c (peroxiredoxin like 2C) | 1 | 0.61 | enough cells in well | 369 | 78.3 | inactive
P2rx3 (purinergic receptor P2X, ligand-gated ion channel, 3) | 1 | 0.02 | enough cells in well | 259 | 171 | inactive
Calhm2 (calcium homeostasis modulator family member 2) | 1 | 0.33 | enough cells in well | 284 | 76.3 | inactive
Bmp2k (BMP2 inducible kinase) | 1 | 0.03 | enough cells in well | 220 | 141 | inactive
Twist2 (twist basic helix-loop-helix transcription factor 2) | 1 | – | fewer than 50 cells per well; well left out of calls | 43.9 | 0 | inactive
Col9a1 (collagen, type IX, alpha 1) | 1 | -0.32 | enough cells in well | 223 | 168 | inactive
Serp1 (stress-associated endoplasmic reticulum protein 1) | 1 | -1.21 | enough cells in well | 95.1 | 86.3 | inactive
Tsnaxip1 (translin-associated factor X (Tsnax) interacting protein 1) | 1 | 0.59 | enough cells in well | 169 | 84.9 | inactive
Nrcam (neuronal cell adhesion molecule) | 1 | 0.33 | enough cells in well | 165 | 175 | inactive
Ccdc88a (coiled coil domain containing 88A) | 1 | -0.37 | enough cells in well | 136 | 181 | inactive
Ccdc88a (coiled coil domain containing 88A) | 2 | 0.36 | enough cells in well | 184 | 180 | inactive
Irx1 (Iroquois homeobox 1) | 1 | 2.37 | enough cells in well | 299 | 268 | inactive
Slc17a3 | 1 | 1.25 | enough cells in well | 160 | 127 | inactive
Robo1 (roundabout guidance receptor 1) | 1 | -0.94 | enough cells in well | 249 | 115 | inactive
Nfkbie | 1 | 1.24 | enough cells in well | 315 | 279 | inactive
Txnl4a (thioredoxin-like 4A) | 1 | -0.98 | enough cells in well | 51.4 | 82.6 | inactive
Txnl4a (thioredoxin-like 4A) | 2 | -1.57 | enough cells in well | 99.9 | 67 | active
Hscb (HscB iron-sulfur cluster co-chaperone) | 1 | -1 | enough cells in well | 128 | 95.2 | inactive
Dna2 (DNA replication helicase/nuclease 2) | 1 | 0.06 | enough cells in well | 206 | 108 | inactive
P4ha3 | 1 | – | fewer than 50 cells per well; well left out of calls | 88.9 | 59.4 | inactive
Rbx1 (ring-box 1) | 1 | -0.29 | enough cells in well | 344 | 141 | inactive
Galnt4 (polypeptide N-acetylgalactosaminyltransferase 4) | 1 | -0.32 | enough cells in well | 215 | 126 | inactive
Tmem222 (transmembrane protein 222) | 1 | 0.2 | enough cells in well | 229 | 149 | inactive
L3mbtl4 (L3MBTL4 histone methyl-lysine binding protein) | 1 | – | fewer than 50 cells per well; well left out of calls | 134 | 103 | inactive
L3mbtl4 (L3MBTL4 histone methyl-lysine binding protein) | 2 | -1.74 | enough cells in well | 86 | 60.2 | active
Zfp654 (zinc finger protein 654) | 1 | -1.44 | enough cells in well | 150 | 36.1 | active
Glra4 (glycine receptor, alpha 4 subunit) | 1 | 0.87 | enough cells in well | 303 | 30.7 | inactive
Hc (hemolytic complement) | 1 | -0.59 | enough cells in well | 166 | 247 | inactive
Rusf1 (RUS family member 1) | 1 | -0.48 | enough cells in well | 131 | 222 | inactive
Ubqln4 (ubiquilin 4) | 1 | -0.72 | enough cells in well | 170 | 129 | inactive
Saxo6 (stabilizer of axonemal microtubules 6) | 1 | -0.46 | enough cells in well | 250 | 151 | inactive
Purg (purine-rich element binding protein G) | 1 | -0.14 | enough cells in well | 133 | 114 | inactive
Ap5s1 (adaptor-related protein 5 complex, sigma 1 subunit) | 1 | – | fewer than 50 cells per well; well left out of calls | 103 | 77.2 | inactive
Pex6 (peroxisomal biogenesis factor 6) | 1 | -0.29 | enough cells in well | 221 | 161 | inactive
Fgfr4 (fibroblast growth factor receptor 4) | 1 | -0.99 | enough cells in well | 134 | 102 | inactive
Sclt1 (sodium channel and clathrin linker 1) | 1 | 0.66 | enough cells in well | 259 | 100 | inactive
Gng13 (guanine nucleotide binding protein (G protein), gamma 13) | 1 | -0.96 | enough cells in well | 120 | 142 | inactive
Or51q1 (olfactory receptor family 51 subfamily Q member 1) | 1 | 0.27 | enough cells in well | 104 | 132 | inactive
Ccdc136 (coiled-coil domain containing 136) | 1 | 0.57 | enough cells in well | 219 | 277 | inactive
Pir (pirin) | 1 | 0.58 | enough cells in well | 223 | 150 | inactive
Baz2a (bromodomain adjacent to zinc finger domain, 2A) | 1 | -0.11 | enough cells in well | 141 | 266 | inactive
Bricd5 (BRICHOS domain containing 5) | 1 | 1.03 | enough cells in well | 236 | 262 | inactive
Coq4 (coenzyme Q4) | 1 | -1.43 | enough cells in well | 23.5 | 74.5 | active
Arhgef40 (Rho guanine nucleotide exchange factor 40) | 1 | 0.32 | enough cells in well | 175 | 148 | inactive
Acadm (acyl-Coenzyme A dehydrogenase, medium chain) | 1 | 0.64 | enough cells in well | 223 | 185 | inactive
Cpne1 (copine I) | 1 | -0.05 | enough cells in well | 179 | 176 | inactive
Or5c1 (olfactory receptor family 5 subfamily C member 1) | 1 | -0.27 | enough cells in well | 169 | 106 | inactive
Txlna (taxilin alpha) | 1 | 0.37 | enough cells in well | 214 | 311 | inactive

8 entries from above, sorted by “Tnf reporter intensity, replicate 1”, highest first:
Target gene | reagent no. | Tnf reporter robust z-score | fewer than 50 cells in well | Tnf reporter intensity, replicate 1 | Tnf reporter intensity, replicate 2 | Outcome
Pdxk (pyridoxal (pyridoxine, vitamin B6) kinase) | 1 | 2.46 | enough cells in well | 330 | 322 | inactive
Ext1 (exostosin glycosyltransferase 1) | 1 | 0.81 | enough cells in well | 308 | 276 | inactive
Fate1 (fetal and adult testis expressed 1) | 1 | 1 | enough cells in well | 254 | 238 | inactive
Rsbn1 (rosbin, round spermatid basic protein 1) | 1 | 3.32 | enough cells in well | 232 | 199 | active
Stard13 (StAR related lipid transfer domain containing 13) | 1 | 1 | enough cells in well | 187 | 84.3 | inactive
Ino80b (INO80 complex subunit B) | 1 | -0.43 | enough cells in well | 177 | 162 | inactive
Rph3a (rabphilin 3A) | 1 | 0.52 | enough cells in well | 152 | 148 | inactive
Necab2 (N-terminal EF-hand calcium binding protein 2) | 1 | -1.44 | enough cells in well | 101 | 70.8 | active
